Laboratory results: article PMC7581431
No constants are given. Whether binding was seen depends on the method and setting. Binding seen in cells or lysates may run through a third protein. A yes stands for co-enrichment or nearness to the bait. Other partners may have been found.

B1: DVL1 (protein, UniProt O14640 1-695)
chain: MAETKIIYHMDEEETPYLVKLPVAPERVTLADFKNVLSNRPVHAYKFFFKSMDQDFGVVKEEIFDDNAKLPCFNGRVVSWLVLAEGAHSDAGSQGTDSHTDLPPPLERTGGIGDSRPPSFHPNVASSRDGMDNETGTESMVSHRRERARRRNREEAARTNGHPRGDRRRDVGLPPDSASTALSSELESSSFVDSDEDGSTSRLSSSTEQSTSSRLIRKHKRRRRKQRLRQADRASSFSSITDSTMSLNIVTVTLNMERHHFLGISIVGQSNDRGDGGIYIGSIMKGGAVAADGRIEPGDMLLQVNDVNFENMSNDDAVRVLREIVSQTGPISLTVAKCWDPTPRSYFTVPRADPVRPIDPAAWLSHTAALTGALPRYGTSPCSSAVTRTSSSSLTSSVPGAPQLEEAPLTVKSDMSAVVRVMQLPDSGLEIRDRMWLKITIANAVIGADVVDWLYTHVEGFKERREARKYASSLLKHGFLRHTVNKITFSEQCYYVFGDLCSNLATLNLNSGSSGTSDQDTLAPLPHPAAPWPLGQGYPYQYPGPPPCFPPAYQDPGFSYGSGSTGSQQSEGSKSSGSTRSSRRAPGREKERRAAGAGGSGSESDHTAPSGVGSSWRERPAGQLSRGSSPRSQASATAPGLPPPHPTTKAYTVVGGPPGGPPVRELAAVPPELTGSRQSFQKAMGNPCEFFVDIM
B2: AMER1 (protein, UniProt Q5JTC6 1-1135)
chain: METQKDEAAQAKGAAASGSTREQTAEKGAKNKAAEATEGPTSEPSSSGPGRLKKTAMKLFGGKKGICTLPSFFGGGRSKGSGKGSSKKGLSKSKTHDGLSEAAHGPEDVVSEGTGFSLPLPELPCQFPSSQSAHGALETGSRCKTSVAGATEKAVAEKFPSMPKPKKGLKGFFSSIRRHRKSKVTGAEQSEPGAKGPERVRARPHEHVSSAPQVPCFEETFQAPRKENANPQDAPGPKVSPTPEPSPPATEKMACKDPEKPMEACASAHVQPKPAPEASSLEEPHSPETGEKVVAGEVNPPNGPVGDPLSLLFGDVTSLKSFDSLTGCGDIIAEQDMDSMTDSMASGGQRANRDGTKRSSCLVTYQGGGEEMALPDDDDEEEEEEEEVELEEEEEEVKEEEEDDDLEYLWETAQMYPRPNMNLGYHPTTSPGHHGYMLLDPVRSYPGLAPGELLTPQSDQQESAPNSDEGYYDSTTPGFEDDSGEALGLVRRDCLPRDSYSGDALYEFYEPDDSLENSPPGDDCLYDLHGRSSEMFDPFLNFEPFLSSRPPGAMETEEERLVTIQKQLLYWELRREQLEAQEARAREAHAREAHAREAYTREAYGREAYAREAHTWEAHGREARTREAQAREVRCRETQVRETQARQEKPVLEYQMRPLGPSVMGLAAGVSGTSQISHRGITSAFPTTASSEPDWRDFRPLEKRYEGTCSKKDQSTCLMQLFQSDAMFEPDMQEANFGGSPRRAYPTYSPPEDPEEEEVEKEGNATVSFSQALVEFTSNGNLFSSMSCSSDSDSSFTQNLPELPPMVTFDIADVERDGEGKCEENPEFHNDEDLAASLEAFELGYYHKHAFNNYHSRFYQGLPWGVSSLPRYLGLPGLHPRPPPAAMALNRRSRSLDTAETLEMELSNSHLVQGYLESDELQAQQEDSDEEDEEEEEGEWSRDSPLSLYTEPPGAYDWPAWAPCPLPVGPGPAWISPNQLDRPSSQSPYRQATCCIPPMTMSISLSVPESRAPGESGPQLARPSHLHLPMGPCYNLQPQASQSMRARPRDVLLPVDEPSCSSSSGGFSPSPLPQAKPVGITHGIPQLPRVRPEHPQPQPTHYGPSSLDLSKERAEQGASLATSYSSTAMNGNLAK
B3: VANGL1 (protein, UniProt Q8TAA9 1-524)
chain: MDTESTYSGYSYYSSHSKKSHRQGERTRERHKSPRNKDGRGSEKSVTIQPPTGEPLLGNDSTRTEEVQDDNWGETTTAITGTSEHSISQEDIARISKDMEDSVGLDCKRYLGLTVASFLGLLVFLTPIAFILLPPILWRDELEPCGTICEGLFISMAFKLLILLIGTWALFFRKRRADMPRVFVFRALLLVLIFLFVVSYWLFYGVRILDSRDRNYQGIVQYAVSLVDALLFIHYLAIVLLELRQLQPMFTLQVVRSTDGESRFYSLGHLSIQRAALVVLENYYKDFTIYNPNLLTASKFRAAKHMAGLKVYNVDGPSNNATGQSRAMIAAAARRRDSSHNELYYEEAEHERRVKKRKARLVVAVEEAFIHIQRLQAEEQQKAPGEVMDPREAAQAIFPSMARALQKYLRITRQQNYHSMESILQHLAFCITNGMTPKAFLERYLSAGPTLQYDKDRWLSTQWRLVSDEAVTNGLRDGIVFVLKCLDFSLVVNVKKIPFIILSEEFIDPKSHKFVLRLQSETSV

target: T1, Nkd1-BirA* (murine) (UniProt Q99MH6); experiment: proximity labelling; BioID with mass spectrometry; BirA* baits stably integrated in Flp-In-T-REx-293 cells, tetracycline-induced, Wnt3a-conditioned media and 50 μM biotin for 12 hr; streptavidin pull-down; hits specific if counts >5 fold over GFP-BirA*; hits may be direct binders or vicinal …
T1 sequence: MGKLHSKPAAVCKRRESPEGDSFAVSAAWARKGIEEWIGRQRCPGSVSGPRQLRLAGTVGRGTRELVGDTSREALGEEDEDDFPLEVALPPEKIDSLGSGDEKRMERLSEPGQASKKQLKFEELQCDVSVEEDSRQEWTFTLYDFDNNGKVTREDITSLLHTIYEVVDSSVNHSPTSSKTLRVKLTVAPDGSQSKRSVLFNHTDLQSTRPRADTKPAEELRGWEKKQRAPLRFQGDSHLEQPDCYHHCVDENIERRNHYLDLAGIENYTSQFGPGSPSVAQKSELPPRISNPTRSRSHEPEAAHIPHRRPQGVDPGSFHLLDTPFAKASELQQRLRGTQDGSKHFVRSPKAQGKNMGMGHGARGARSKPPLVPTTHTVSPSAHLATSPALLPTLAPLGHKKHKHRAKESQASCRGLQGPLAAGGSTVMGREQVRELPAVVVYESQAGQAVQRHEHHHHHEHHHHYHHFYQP

binding, binds:
B1, B2, B3
